The list shows a part of the results.
B1: il2ra_site1_2b5i_normal_mot_f5ff40796168375b462bec8614a1db4a_0001_1_000000138_0001_53_65_H_._HHH_b2_04138_af2_0001_0000300030_0000001_0_af2pred_0001_af2pred_1 (protein)
chain: SSSSDLREELVEALIREAEELIKEGDKERARHILVLAAAIARKANNEELLREVEELLKELSSSSS
B2: il2ra_site2_2erj_sap_26_mot_HHH_b2_01423_af2_000000017_0001_43_57_H_._3824cfb560b92ee870597236e80092b0_0001_0001_0000300033_0000001_0_0001 (protein)
chain: SSSSDASELSDEAFEEAARLFEKGDPEEAEKVLEEVLERLEELNDPHAVETLRLLLRFLRTSSSS
B3: il2ra_site2_2erj_sap_28_mot_c2bf78bdce995293a161f7082e24b401_0001_000000177_0001_37_51_H_._HHH_b2_03766_af2_0001_0001200026_0000001_0_0001 (protein)
chain: SSSSDLHELYKLLNELMELLHRGDEEEARRVLEEARRLAEEFGSRNVKEVLEFLFKNFERSSSSS
B4: il2ra_site1_3nfp_normal_mot_HHH_b1_07644_af2_000000110_0001_40_57_H_._HEEHE_2706_0001_0000200023_0000001_0 (protein)
chain: DQEEIVRRLIEQKAKQAGVPHVEVEVHNGTFTVTVEGDDEAAEKVLEHAEEAAERVGVPIHVETR
B5: il2ra_site2_3nfp_normal_mot_HHH_b2_08209_000000146_0001_1_18_H_._HHH_b1_04301_0001_0000300020_0000001_0 (protein)
chain: SSSSSEEVEELLEKVEELLKRGDYEEARKLLKRAADLAFQAGDFELFARLQDLFELVLRLSSSSS
B6: il2ra_site2_3nfp_sap_26_mot_HHH_b1_05845_af2_000000292_0001_20_37_H_._77bd590ed5d37effd7ce5f2f52e6dcee_0001_0001_0000300009_0000001_0_0001 (protein)
chain: SSSSSDNSEEYLRAALALLERAKSEEEFEKLFEMIRLAAESNNDEEIEELLEELREKWESSSSSS
B7: il2ra_site1_2b5i_normal_mot_09770d796a13084421b44ad29b674de3_0001_1_000000065_0001_17_32_H_._HHH_b2_03211_0001_0000300015_0000001_0_af2pred_dldesign_0_af2pred (protein)
chain: SSSSRVEELLAEARRLIEEGKLEEAREVLERARDLAEEAEDPELLKKVNEVLKELYKAELSSSSS
B8: il2ra_site2_3nfp_normal_mot_HHH_b1_05628_af2_000000064_0001_19_35_H_._HHH_b1_04724_af2_0001_0000200013_0000001_0_af2pred_0001_af2pred (protein)
chain: SSSSDEEEEVKELLREAKELLERGNPEEAEKVVLRAASIASELGNFELFAAATRLAEEIHRSSSS
B9: il2ra_site1_3nfp_sap_10_mot_HHH_b1_06312_000000077_0001_1_18_H_._HHH_b1_02469_af2_0001_0000200012_0000001_0_0001 (protein)
chain: TFVEEAIEEIEKRDEELSELLRKVYELAHEKQDPELFRLLIRALAAVQQGNPEKAKKLLKEAEER
B10: il2ra_site1_3nfp_normal_mot_5dea99290cf7e133ebc5b763b21a7a39_0001_000000141_0001_34_49_H_._9a51d51d2fb94bb7d8a0fe0c4708f7cc_0001_0001_0000300025_0000001_1 (protein)
chain: SAAEQAIKAAERLAPPELRRLLREILEEIEKNPEDARLLQLLSKLVDLIWKGNEEEAEELAKEVT
B11: il2ra_site1_3nfp_sap_13_mot_HHH_b1_02647_af2_000000015_0001_39_52_H_._HHH_b1_04164_0001_0000400045_0000001_0_0001 (protein)
chain: SSSSSDLEEDAKYLVEFLVELNGLSEEQEERLEKLAEELVKRGLDAAEIARALMKLAARLSSSSS
B12: il2ra_site2_3nfp_normal_mot_HHH_b2_07840_000000026_0001_18_34_H_._HHH_b1_00395_0001_0000300009_0000001_0_af2pred_0001_af2pred (protein)
chain: SSSSSDEEIREEVEELLELAERIEDEIEVFAVLADALRLALELEDPELERLVQEVARRLKSSSSS
B13: il2ra_site1_1z92_normal_mot_HHH_b1_08075_000000018_0001_1_20_H_._HHH_b1_07718_0001_0000200023_0000001_0 (protein)
chain: SSSSSRAEHIAVRLFLQTAERAIEAGNPRAAERLLRFAEEAARIGNDEELLEEVERLLEELSSSS
B14: il2ra_site1_3nfp_normal_mot_HHH_b1_02637_af2_000000026_0001_1_18_H_._HHH_b2_01402_af2_0001_0000200009_0000001_0_af2pred_0001_af2pred (protein)
chain: SSSSDKEEAERLLRQATELLRNGNPEEAREVLEEALKIAEESGDEVLARFLRIALEIAKTGSSSS
B15: il2ra_site2_2erj_normal_mot_HHH_b1_02106_af2_000000056_0001_20_36_H_._HHH_b1_08722_0001_0000300007_0000001_0 (protein)
chain: SSSDKEEKAKELLEEVERLLEEGDTEEAERVVRKAAALAIEANDFELFAELSELTRLIAELSSSS
B16: il2ra_site2_3nfp_sap_19_mot_HHH_b2_06150_000000217_0001_39_53_H_._HHH_b2_00198_af2_0001_0000700033_0000001_0_0001 (protein)
chain: SSSSSSSDEEEVEELLEEAKQIDDEEELLRVLLRAAHIAWKNRDEELYARISEVIEKLSSSSSSS
B17: il2ra_site1_1z92_sap_14_mot_47733d3662eb36425869ff66b6028fdd_0001_af2_000000189_0001_37_50_H_._HHH_b1_00762_af2_0001_0000200017_0000001_0_0001 (protein)
chain: SELEEILEEVLKLIPNPKAREFLRRQLERKLERGNEKAAIRLALDMAEMAGNPELARLLRELLEP
B18: il2ra_site1_3nfp_sap_12_mot_HHH_b1_04364_000000255_0001_42_57_H_._27223525e44f26cbb76cb0a34dbb38cc_0001_af2_0001_0000100007_0000001_0_0001_af2pred_0001_af2pred_ … (protein)
chain: TEELTEEILELLKKDPNEAYRLFRELLRKKGIPPEEARKLAEEVLRLAAKLPPEELEEFIRELLR

target: il2ra, P01589; test: yeast display titration

Apparent Kd, inactive:
B1 no binding seen
B2 no binding seen
B3 no binding seen
B4 no binding seen
B5 no binding seen
B6 no binding seen
B7 no binding seen
B8 no binding seen
B9 no binding seen
B10 no binding seen
B11 no binding seen
B12 no binding seen
B13 no binding seen
B14 no binding seen
B15 no binding seen
B16 no binding seen
B17 no binding seen
B18 no binding seen

As a short view, part of the list above.
Apparent Kd, inactive:
B16 no binding seen
B17 no binding seen
B18 no binding seen
